Results are given in words; binding and its absence hold for the method and conditions named.

The chains behind the UniProt entries cited, without tags or fusion partners. Where a name states a change or a piece, a line headed by the entry shows the natural chain unless it says otherwise.
UniProt Q96SZ5: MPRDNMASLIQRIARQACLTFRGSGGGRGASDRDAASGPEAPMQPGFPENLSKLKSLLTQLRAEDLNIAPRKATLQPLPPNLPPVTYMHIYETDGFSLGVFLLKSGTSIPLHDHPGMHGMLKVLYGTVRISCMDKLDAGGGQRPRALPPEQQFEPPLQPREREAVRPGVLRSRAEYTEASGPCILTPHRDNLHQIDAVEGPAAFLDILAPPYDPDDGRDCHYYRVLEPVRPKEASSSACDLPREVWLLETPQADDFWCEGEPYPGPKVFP
UniProt O15539: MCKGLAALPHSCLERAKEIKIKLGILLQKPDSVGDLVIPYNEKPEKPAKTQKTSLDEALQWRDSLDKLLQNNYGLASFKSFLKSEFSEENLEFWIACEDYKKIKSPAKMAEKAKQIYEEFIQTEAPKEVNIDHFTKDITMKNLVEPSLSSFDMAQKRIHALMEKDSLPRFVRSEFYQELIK
UniProt P24001: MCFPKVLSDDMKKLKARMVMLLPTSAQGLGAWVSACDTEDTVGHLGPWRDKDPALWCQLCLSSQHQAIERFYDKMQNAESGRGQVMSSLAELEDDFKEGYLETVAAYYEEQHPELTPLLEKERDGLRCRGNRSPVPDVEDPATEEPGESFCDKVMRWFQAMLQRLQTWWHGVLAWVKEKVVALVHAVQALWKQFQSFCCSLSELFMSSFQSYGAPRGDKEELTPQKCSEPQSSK

The test has as its target 2-aminoethanethiol (cysteamine) dioxygenase (ADO), biotinylated, for SPR (human) (UniProt Q96SZ5). Briefly: SPR; Biacore T200; biotinylated ADO immobilized on a Biotin CAP chip (∼2500 to 3000 RU), peptide/protein substrates injected; 4 °C; 20 mM Hepes pH 7.5, 500 mM NaCl, 10 mM DTT, 0.1% tween-20; 50 μl/min; multicycle, equilibrium steady state affinity 1:1 binding model; both purified. (SPR reads the build-up and loss of mass on a sensor chip optically.)

In the case of AKGLAALPHSCLER (peptide, UniProt O15539 2-15) [RGS5-C2A peptide], the binding result was “no binding”.
Under AFPKVLSDDMKKLK (peptide, UniProt P24001 2-15) [IL32-C2A peptide] stands “no binding”.
